Laboratory results: PubChem BioAssay AID686943 (Drosophila RNAi Screening Center, 2013)
The deposit covers about 23,000 reagents; shown is a random part of those that have a named target and a result. 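Extra replicates exist only for a retested subset of genes; insulin dose and duration not given; both raised and lowered dpERK matter.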 Names joined by + are all predicted targets of the reagent. No sequences are given here. The record does not give: the amount of reagent, the time to read-out.

Assay: 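Search across the genome for regulators of signalling from receptor tyrosine kinase to ERK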 (primary screen)
System: Drosophila S2R+ haemocyte-like cells expressing YFP-tagged ERK (Rolled)
Reagent: long dsRNA against Drosophila genes
Challenge: insulin stimulation versus unstimulated cells; dose and duration not given
Measurement: 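Antibody staining for doubly phosphorylated ERK divided by ERK-YFP signal, as plate z-scores, in insulin-treated and untreated cells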
Reading the numbers: replicate 1, z-score of dpERK with insulin and replicate 2, z-score of dpERK with insulin: higher = more active ERK per ERK-YFP after insulin; replicate 1, z-score of dpERK under basal conditions: higher = more basal active ERK per ERK-YFP; replicate 1, z-score of ERK-YFP with insulin: higher = more YFP-tagged ERK signal

Gene	DRSC id	replicate 1, z-score of dpERK with insulin	replicate 2, z-score of dpERK with insulin	replicate 1, z-score of dpERK under basal conditions	replicate 1, z-score of ERK-YFP with insulin
CG11815	DRSC08209	0.23	0.37	0.11	0.12
CG32413	DRSC21591	0.14	0.92	-0.79	-0.92
CG31775 + CG42586	DRSC22289	0.13	0.25	1.18	0.9
CR18275 + CG13373	DRSC17900	-0.32	0	-0.78	-0.25
CG2157	DRSC19836	0.89	0.47	1.72	0.09
Pp2B-14D	DRSC20270	-1.56	-0.31	-1.41	-2.7
barc	DRSC11792	0.51	0.11	0.84	0.53
beta4GalNAcTB	DRSC14869	-0.05	-0.08	0.03	0.27
CG4839	DRSC02783	-0.06	-0.62	-1.49	-0.62
CG4839	DRSC02784	0.77	0.28	-0.01	0.14
pasi2	DRSC16380	1.29	1.36	-0.69	-0.26
Cyp309a1	DRSC00747	0.46	0.29	-0.39	-0.09
CG14416	DRSC18639	0.06	-0.23	-1.07	0.65
Task7	DRSC16477	0.04	0.23	0.9	0.12
CG5646	DRSC15853	0.02	-0.24	0.22	-0.07
GluRIA	DRSC11176	-0.58	0.19	-0.05	0.58
Arp10	DRSC19448	0.16	1.32	0.69	0
Prp3	DRSC10912	2.98	2.38	-1.48	-0.21
CG1640	DRSC19750	0.83	0.7	0.77	1.02
DIP-eta	DRSC02342	0.72	0	-0.33	-0.58
CG1850	DRSC06762	-0.13	0.85	-0.41	-0.18
IFT43	DRSC02892	-0.25	-0.62	0.17	0.77
Ref2	DRSC02563	0.12	0.8	1.38	0.05

Records above whose target name begins with P or p:
Gene	DRSC id	replicate 1, z-score of dpERK with insulin	replicate 2, z-score of dpERK with insulin	replicate 1, z-score of dpERK under basal conditions	replicate 1, z-score of ERK-YFP with insulin
Pp2B-14D	DRSC20270	-1.56	-0.31	-1.41	-2.7
pasi2	DRSC16380	1.29	1.36	-0.69	-0.26
Prp3	DRSC10912	2.98	2.38	-1.48	-0.21
